# Results reported in paper PMC10518977.
# Results are given in words; binding and its absence hold for the method and conditions named. Binding seen in cells or lysates may run through a third protein. Some binding calls cover weakened binding; strength is not graded here. For some assays here: Tags and fused reporters may be left off the sequences shown.
# T1: Glutathione peroxidase 2 (GPX2), endogenous (human (endogenous in HCT116, HT29, HCT15, LS174T)) (UniProt P18283)
# T1 sequence: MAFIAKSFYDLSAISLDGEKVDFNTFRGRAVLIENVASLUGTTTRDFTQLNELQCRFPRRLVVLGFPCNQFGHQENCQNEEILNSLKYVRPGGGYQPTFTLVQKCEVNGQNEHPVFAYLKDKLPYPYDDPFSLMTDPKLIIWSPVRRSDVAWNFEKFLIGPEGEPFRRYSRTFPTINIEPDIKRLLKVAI
# T2: Truncated ACVRL1(282-503aa)-Flag (UniProt P37023)
# T2 sequence: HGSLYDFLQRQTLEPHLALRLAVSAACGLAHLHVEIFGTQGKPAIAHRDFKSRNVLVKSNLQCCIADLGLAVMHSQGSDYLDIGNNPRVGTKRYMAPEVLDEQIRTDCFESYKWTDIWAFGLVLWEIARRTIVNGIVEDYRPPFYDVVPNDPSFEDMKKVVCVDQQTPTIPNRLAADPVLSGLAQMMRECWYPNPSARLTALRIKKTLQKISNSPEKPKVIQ
# B1: Glutathione peroxidase 2 (GPX2), endogenous (enzyme, UniProt P18283 1-190)
# chain: T1 sequence
# B2: GPX2-HA (enzyme, UniProt P18283 1-190)
# chain: T1 sequence
# B3: Ubiquitin-specific peptidase 15 (USP15), endogenous (enzyme, UniProt Q9Y4E8 1-981)
# chain: MAEGGAADLDTQRSDIATLLKTSLRKGDTWYLVDSRWFKQWKKYVGFDSWDKYQMGDQNVYPGPIDNSGLLKDGDAQSLKEHLIDELDYILLPTEGWNKLVSWYTLMEGQEPIARKVVEQGMFVKHCKVEVYLTELKLCENGNMNNVVTRRFSKADTIDTIEKEIRKIFSIPDEKETRLWNKYMSNTFEPLNKPDSTIQDAGLYQGQVLVIEQKNEDGTWPRGPSTPKSPGASNFSTLPKISPSSLSNNYNNMNNRNVKNSNYCLPSYTAYKNYDYSEPGRNNEQPGLCGLSNLGNTCFMNSAIQCLSNTPPLTEYFLNDKYQEELNFDNPLGMRGEIAKSYAELIKQMWSGKFSYVTPRAFKTQVGRFAPQFSGYQQQDCQELLAFLLDGLHEDLNRIRKKPYIQLKDADGRPDKVVAEEAWENHLKRNDSIIVDIFHGLFKSTLVCPECAKISVTFDPFCYLTLPLPMKKERTLEVYLVRMDPLTKPMQYKVVVPKIGNILDLCTALSALSGIPADKMIVTDIYNHRFHRIFAMDENLSSIMERDDIYVFEININRTEDTEHVIIPVCLREKFRHSSYTHHTGSSLFGQPFLMAVPRNNTEDKLYNLLLLRMCRYVKISTETEETEGSLHCCKDQNINGNGPNGIHEEGSPSEMETDEPDDESSQDQELPSENENSQSEDSVGGDNDSENGLCTEDTCKGQLTGHKKRLFTFQFNNLGNTDINYIKDDTRHIRFDDRQLRLDERSFLALDWDPDLKKRYFDENAAEDFEKHESVEYKPPKKPFVKLKDCIELFTTKEKLGAEDPWYCPNCKEHQQATKKLDLWSLPPVLVVHLKRFSYSRYMRDKLDTLVDFPINDLDMSEFLINPNAGPCRYNLIAVSNHYGGMGGGHYTAFAKNKDDGKWYYFDDSSVSTASEDQIVSKAAYVLFYQRQDTFSGTGFFPLDRETKGASAATGIPLESDEDSNDNDNDIENENCMHTN
# Experiments:
# [1] = target: T1, Glutathione peroxidase 2 (GPX2), endogenous (human (endogenous in HCT116, HT29, HCT15, LS174T)); experiment: co-IP; endogenous proteins in HCT15 and LS174T cells; NP-40 lysis buffer, primary antibody overnight at 4°C, Protein A/G PLUS-Agarose; IP of ACVRL1 or of GPX2, IgG as negative control; also in cells with knockdown of USP15
# [2] = target: Activin A receptor-like type 1 (ACVRL1), endogenous (human (endogenous in HCT15, LS174T)) (UniProt P37023); experiment: as above
# [3] = target: Full-length ACVRL1-Flag (Activin A receptor-like type 1) (UniProt P37023); experiment: co-IP; HCT116 and HT29 cells transfected with Flag-ACVRL1; anti-DYKDDDDK magnetic agarose; western blot for GPX2
# [4] = target: T2, Truncated ACVRL1(282-503aa)-Flag; experiment: co-IP; ACVRL1-Flag constructs and GPX2-HA co-transfected into LS174T and HCT15 cells; IP of Flag with subsequent western blot
# [5] = target: Activin A receptor-like type 1 (ACVRL1), endogenous (human (endogenous in HCT15, LS174T)) (UniProt P37023); experiment: co-IP; LS174T cells (endogenous by the legend; the text says ACVRL1 and GPX2 were overexpressed separately); also CRC cells with shNTC, shACVRL1 or knockdown of GPX2
molecule,measurement,setting,value
"Activin A receptor-like type 1 (ACVRL1), endogenous (from UniProt P37023 22-503)",binding,[1],binds
B1,binding,[2],binds
same,binding,[3],binds
B2,binding,[4],binds
B3,binding,[5],binds
